Not every detail of the peptide structures is certain; ends, links or a residue may be inferred.
Assay: Solubility and dissolution of peptide-linker conjugate and peptide in solvents and buffers
Assay type: physicochemical
Conditions: propylene glycol/histidine buffer mixture, both solid forms
Source text: The process for the formation of the drug substance 5 was originally described in U.S. Pat. No. 8,288,349 whose contents are hereby incorporated. The original process involved use of propylene glycol as the cosolvent in the conjugation process between peptide-linker 3 and the antibody h38C2. […] The more amorphous solid form is usually more soluble in different solvents and buffer solutions. […] During preparation of bioconjugate 5, it is desirable to have a conjugation mixture as a homogeneous solution at the beginning of the reaction in order to afford consistent reaction kinetics and more robust manufacturing process.
In the original process, propylene glycol was used as a cosolvent primarily to assist in the dispersion of the hydrophobic peptide-linker 3b in the aqueous histidine buffer solution at pH 6.5.

For `CSCC[C@H](NC(=O)[C@H](Cc1ccccc1)NC(=O)[C@H](CCC(N)=O)NC(=O)[C@H](CC(=O)O)NC(=O)[C@H](Cc1ccc(O)cc1)NC(=O)[C@H](CC(C)C)NC(=O)[C@@H](NC(=O)[C@H](CCCCNC(=O)COCC(=O)Nc1ccc(CCC(=O)N2CCC2=O)cc1)NC(=O)[C@H](CC(=O)O)NC(=O)[C@H](CCCCNC(C)=O)NC(=O)[C@H](CCC(=O)O)NC(=O)[C@H](CC(=O)O)NC(=O)[C@H](CC(C)C)NC(=O)[C@@H]1CCCN1C(=O)[C@H](CCC(N)=O)NC(=O)[C@H](Cc1ccc(O)cc1)NC(=O)[C@H](CCCCNC(C)=O)NC(=O)[C@H](CCC(N)=O)NC(C)=O)C(C)O)C(=O)N[C@@H](CC(C)C)C(=O)N[C@@H](CCC(N)=O)C(=O)N[C@@H](CCC(N)=O)C(=O)NCC(N)=O` (stereo partly shown) [3b], the Time to dissolve was 2 to 3 h.

Source: patent US9352050B2, “Processes for preparing peptide conjugates and linkers” (PFIZER INC., priority 2011, dated 2016)
